Source: PubChem BioAssay AID504467 (National Center for Advancing Translational Sciences (NCATS), 2011)
Among all 330,000 compounds or so, about 7,700 (2.3%) were called active. This list was built around the results that the source calls inconclusive (neither active nor inactive); the mix of calls is not that of the screen. The call rests on the fitted dose curve; in most records, active means well fitted inhibition curve with a large enough effect; inconclusive means small, poorly fitted or top-dose-only effect, or effect the other way; inactive means flat fitted curve, though single readings scatter. Potencies beside an inconclusive call are fits to weak or partial responses and may not hold up.

Assay: qHTS screen for small molecules that inhibit ELG1-dependent DNA repair in human embryonic kidney (HEK293T) cells expressing luciferase-tagged ELG1; further: nearly all actives have a fitted effect of over 55% in size
Conditions: HEK293T ELG1-luciferase reporter, luminescence, 16 h, DNA damage induced by 5-fluorouridine; series mostly up to 46.1 µM
Summary of the method: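 Cells (2,000 per well) received 5-fluorouridine plus test compound or DMSO and were incubated 16 hr at 37 °C, 5% CO2. Luciferase activity was read by luminescence 30 min after ONE-Glo addition; signal suppression marked inhibition of damage-induced ELG1 function.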
Potency means the concentration at half of the fitted maximal effect.

SMILES | Potency
CC(OC(=O)c1cc2ccccc2cc1O)C(=O)Nc1ccc(S(N)(=O)=O)cc1 (centres undefined) | inactive
Cc1ccccc1OCCOc1ccc([N+](=O)[O-])cc1/C=N/n1cnnc1 | inconclusive: 32.6 µM [inhibitor, single point]
Cc1ccc(C)c(OCC(=O)NCC(C)(C)N2CCOCC2)c1 | inconclusive: 0.259 µM [activator, single point]
Cc1ccc(NC(=O)C2CCN(c3ncnc4c3nc3n4CCCCC3)CC2)nc1 | inconclusive: 6.51 µM [inhibitor, partial curve]
COC(C(=O)N1CCC(CCC(=O)Nc2ccccc2)CC1)c1ccccc1 (centres undefined) | inconclusive: 13 µM [activator, single point]
CCCc1nc2ccccc2c(=O)n1-c1ccc(C(=O)OCC)cc1 | inconclusive: 29.1 µM [inhibitor, single point]
C(=N\Nc1nc(-c2ccccc2)cs1)/c1cccnc1 | inconclusive: 3.26 µM [activator, partial curve]
CC1(C)CC(=O)C2=C(C1)Oc1ncn(CCCO)c(=N)c1C2c1ccccc1 (centres undefined) | inactive
COc1ccc(-c2cc(C(=O)O)nc3ccc4ccccc4c23)cc1OC | inconclusive: 20.6 µM [activator, single point]
Nc1c(Cl)cc(-c2csc(NCCc3nc4cc(Cl)c(Cl)cc4n3CCCO)n2)cc1Cl | inconclusive: 29.1 µM [inhibitor, single point]
Cc1ccccc1C(=O)Nc1ccc2c(C#N)c3nc4ccccc4nc3n2c1 | active: 18.4 µM
N#Cc1c(N(CCO)CCO)nc(N)c2c(N)nc3c(c12)CC(=O)N3CC1CCCO1 (centres undefined) | inactive
O=C(c1cc2nc(C3CC3)cc(C(F)F)n2n1)N1CCOCC1 | inconclusive: 23.1 µM [activator, single point]
CC(=O)c1c(C)[nH]c(C(=O)CSc2nnc(N)s2)c1C | inconclusive: 25.9 µM [activator, single point]
C=CCn1c(-c2ccc(OC)cc2)nc2ccccc21 | inconclusive: 2.91 µM [activator, full curve, poor fit]
Cc1cccc(N=C2NC(=O)/C(=C/c3cn(C)c4ccccc34)S2)c1 | inconclusive: 20.6 µM [inhibitor, single point]
O=C(NCC(c1ccco1)N1CCc2ccccc21)c1cccc([N+](=O)[O-])c1 (centres undefined) | inconclusive: 25.9 µM [inhibitor, single point]
C=CCN1C(=O)/C(=C/c2ccsc2)SC1=S | inactive
CC(=O)n1c(C=Nc2ccc(Cl)cc2)c(O)c2ccccc21 | inconclusive: 29.1 µM [activator, single point]
COc1ccc2oc(C(=O)OCC(=O)c3ccc4c(c3)OCCO4)c(C)c2c1 | inconclusive: 20.6 µM [inhibitor, single point]
O=C(COc1ccc(Cl)cc1)Nc1cc(S(=O)(=O)N2CCCCC2)ccc1N1CCCCC1 | inactive
O=C(Nc1ccc(Cl)c([N+](=O)[O-])c1)c1ccc2c(c1)OCCO2 | inconclusive: 2.31 µM [activator, partial curve]
Cn1c(N)c(C(=O)COC(=O)c2ncc(Cl)c(Cl)c2Cl)c(=O)n(C)c1=O | inconclusive: 23.1 µM [activator, single point]

SMILES | Potency
COc1cccc(C(c2c(C)[nH]n(-c3ccccc3)c2=O)c2c(C)[nH]n(-c3ccccc3)c2=O)c1OC | inactive
Cc1cc(NC2CCCCC2)nc2ccccc12 | inactive
CCOC(=O)CSc1nc(C)cc(C)c1C(N)=O | inactive
O=C(N/N=C/c1cc(Br)ccc1OC(=O)c1ccc(Br)cc1)c1ccncc1 | active: 4.11 µM
Cc1ccc(-c2nn(-c3ccccc3)cc2CO)o1 | inconclusive: 14.6 µM [activator, partial curve]
COc1ccc2nc(NC(=O)CSc3nc(C)cc(=O)[nH]3)sc2c1 | inactive
COc1ccc(CNC(=S)Nc2ccccc2)cc1 | inactive
Cc1cc(C(=O)CCC(=O)N2CCN(c3ccccc3)CC2)c(C)s1 | inactive
O=C(O)/C(=C\c1ccco1)NC(=O)c1ccccc1 | inactive
CC1CCCN(CCCNC(=O)CCn2nc(-c3ccccc3)ccc2=O)C1 (centres undefined) | inactive
COc1ccc2c(C)nc(N/C(N)=N/S(=O)(=O)c3ccc(C)cc3)nc2c1 | inconclusive: 14.6 µM [inhibitor, partial curve, poor fit]
O=Cc1ccc(N2Cc3ccccc3C2)cc1 | inconclusive: 35.5 µM [activator, single point]
O=C(C(=O)N1CCN(c2ccc([N+](=O)[O-])cc2)CC1)c1cn(CC(=O)N2CCOCC2)c2ccccc12 | inactive
Cc1ccccc1C(=O)Nc1ccc2c(c1)CCCN2C(=O)c1cccs1 | inconclusive: 2.06 µM [activator, partial curve, poor fit]
Cc1ccc(C2(O)CN(c3ccccc3C)C3=[N+]2CCS3)cc1 (centres undefined) | inactive
COc1cccc(CNC(=O)CN2C(=O)NC(Cc3ccccc3)(c3ccccc3)C2=O)c1 (centres undefined) | inactive
O=C(OCC(=O)N1CCCC1)c1c[nH]c2ccccc12 | inconclusive: 23.1 µM [activator, partial curve]
Cn1c(CN2CCOCC2)nnc1SCC(=O)Nc1ccc([N+](=O)[O-])cc1O | active: 13 µM
CCOc1ccc(Br)cc1S(=O)(=O)Nc1ccc(NC(=O)c2ccccc2C)cc1 | inconclusive: 23.1 µM [inhibitor, partial curve, poor fit]
Cc1cc(C)n2c(SCC(=O)Nc3cc(S(=O)(=O)N(C)C)ccc3C)nnc2n1 | inactive
CC(=O)Nc1ccc(S(=O)(=O)N2CCN=C2SCc2cccc(C)c2)cc1 | inactive
COc1ccc(Nc2nnc(SCC3CCCO3)s2)cc1 (centres undefined) | inconclusive: 18.3 µM [activator, partial curve]
O=C(N/N=C/c1ccc(OCc2ccc(F)cc2)cc1)c1ccccc1 | inconclusive: 29.1 µM [activator, single point]

SMILES | Potency
CC(=O)c1cccc(NC(=O)COC(=O)c2ccc(S(C)(=O)=O)c([N+](=O)[O-])c2)c1 | inconclusive: 23.1 µM [activator, single point]
Cc1cccc(NC(=O)C2CCN(S(=O)(=O)c3c(C)nn(C)c3C)CC2)n1 | inconclusive: 29.1 µM [inhibitor, partial curve, poor fit]
CCC(C)c1ccc(NC(=O)C2=CC=CN3CCS(=O)(=O)N=C23)cc1 (centres undefined) | inconclusive: 12.6 µM [activator, partial curve]
CCCN(CC(=O)Nc1ccccc1C)C(=O)c1ccc(-c2ccc([N+](=O)[O-])cc2)o1 | inconclusive: 20.6 µM [inhibitor, partial curve, poor fit]
Cc1ccc(CN2C(=O)C(C)Nc3ncnc(N4CCN(c5ccccn5)CC4)c32)cc1 (centres undefined) | inconclusive: 31.6 µM [inhibitor, single point]
Cn1c(N)c(Sc2ccc([N+](=O)[O-])cc2)c(=O)n(C)c1=O | inactive
Cc1ccc(C)c(N(C)C(=O)c2ccc3c(=O)n4c(nc3c2)CCCCC4)c1 | inactive
O=C(NC(=S)N1CCCCC1c1cccnc1)c1ccc(F)cc1 (centres undefined) | inactive
C/C(=N/NC(=O)c1ccco1)c1cccnc1 | inconclusive: 20.6 µM [activator, partial curve]
CCOC(=O)C(=O)Nc1cc(C)on1 | inconclusive: 7.3 µM [activator, partial curve]
CC1CCC(NC(=O)CSc2nncs2)CC1 (centres undefined) | inconclusive: 8.2 µM [activator, partial curve, poor fit]
C/C(=N\Nc1nc(C)cc(-c2ccccc2)n1)c1ccc(C)o1 | inconclusive: 14.1 µM [inhibitor, partial curve, poor fit]
CCCCCCCCCCn1ccc(=N)cc1 | inconclusive: 0.291 µM [inhibitor, full curve]
O=C(c1cccc(S(=O)(=O)N2CCCC2)c1)N1CCN(c2ccccc2)CC1 | inconclusive: 29.1 µM [inhibitor, partial curve, poor fit]
CC1CCN(c2c([N+](=O)[O-])nn(-c3ccc4c(c3)OCCO4)[n+]2[O-])CC1 | inconclusive: 20.6 µM [activator, partial curve]
CC(C)(C)OC(=O)N1CCN(c2ccc(NC(=O)c3ccco3)cc2)CC1 | inconclusive: 25.9 µM [inhibitor, single point]
CCOC(=O)C1CCN(C(=O)CN2C(=O)NC(C)(c3ccc4cc(OC)ccc4c3)C2=O)CC1 (centres undefined) | inconclusive: 23.1 µM [inhibitor, partial curve]
Cc1ccc(NC(=O)CSC(C)C(=O)OCC(=O)N2CCN(C(=O)c3ccco3)CC2)cc1 (centres undefined) | inconclusive: 25.9 µM [activator, single point]
CC1CCCCC1NC(=O)Cn1ncc2ccccc21 (centres undefined) | inconclusive: 29.1 µM [activator, single point]
O=C(Nc1nc(-c2ccccc2)cs1)c1cccc(S(=O)(=O)N2CCN(Cc3ccccc3)CC2)c1 | inconclusive: 13 µM [inhibitor, partial curve, poor fit]
CCCn1c(SCC(=O)N2CCN(c3ccccc3)CC2)nc2ccccc2c1=O | inconclusive: 35.5 µM [inhibitor, single point]
O=C(COC(=O)c1n[nH]c2ccccc12)Nc1ccc(S(=O)(=O)N2CCCC2)cc1 | inconclusive: 11.6 µM [inhibitor, partial curve]
CCOc1ccccc1NC(=O)c1oc2ccccc2c1NC(=O)C1CCCO1 (centres undefined) | active: 7.3 µM

Six successive compounds already listed, quoted:
SMILES | Potency
Cc1ccc(NC(=O)CSC(C)C(=O)OCC(=O)N2CCN(C(=O)c3ccco3)CC2)cc1 (centres undefined) | inconclusive: 25.9 µM [activator, single point]
CC1CCCCC1NC(=O)Cn1ncc2ccccc21 (centres undefined) | inconclusive: 29.1 µM [activator, single point]
O=C(Nc1nc(-c2ccccc2)cs1)c1cccc(S(=O)(=O)N2CCN(Cc3ccccc3)CC2)c1 | inconclusive: 13 µM [inhibitor, partial curve, poor fit]
CCCn1c(SCC(=O)N2CCN(c3ccccc3)CC2)nc2ccccc2c1=O | inconclusive: 35.5 µM [inhibitor, single point]
O=C(COC(=O)c1n[nH]c2ccccc12)Nc1ccc(S(=O)(=O)N2CCCC2)cc1 | inconclusive: 11.6 µM [inhibitor, partial curve]
CCOc1ccccc1NC(=O)c1oc2ccccc2c1NC(=O)C1CCCO1 (centres undefined) | active: 7.3 µM
